Laboratory results published in paper PMC6302113.

Key:
[1] = molecular target: T1, IL-22 binding protein isoform-2 (IL-22BPi2), C-terminally myc-FLAG-tagged (human) (UniProt Q969J5); experiment: co-IP; HEK293 transiently co-transfected with IL-22BPi1 or IL-22BPi2 and FLAG-tagged GRP94 truncation and deletion mutants, lysed after 24 h; Myc agarose to precipitate the IL-22BP isoform; immunoblot with KDEL and mouse or rabbit FLAG antibodies
T1 sequence: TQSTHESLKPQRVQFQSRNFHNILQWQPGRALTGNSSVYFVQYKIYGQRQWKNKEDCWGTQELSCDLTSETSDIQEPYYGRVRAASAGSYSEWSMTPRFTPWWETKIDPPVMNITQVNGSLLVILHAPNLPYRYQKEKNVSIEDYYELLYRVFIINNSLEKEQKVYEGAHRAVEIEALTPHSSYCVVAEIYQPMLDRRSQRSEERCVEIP

[2] = molecular target: T2, IL-22 binding protein isoform-1 (IL-22BPi1), C-terminally myc-FLAG-tagged (human) (UniProt Q969J5); experiment: as above
T2 sequence: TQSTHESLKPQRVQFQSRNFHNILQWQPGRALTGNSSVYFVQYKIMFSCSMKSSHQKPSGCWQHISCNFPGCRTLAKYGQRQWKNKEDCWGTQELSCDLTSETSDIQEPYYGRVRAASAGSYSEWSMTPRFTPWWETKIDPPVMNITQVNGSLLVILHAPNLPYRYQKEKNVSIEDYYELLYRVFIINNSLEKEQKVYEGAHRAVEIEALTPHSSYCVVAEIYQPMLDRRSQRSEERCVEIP

binding [1]	binding [2]	Substance
no binding	no binding	GRP94 C-terminal domain (CTD) mutant, FLAG-tagged (domain or fragment)
no binding	no binding	GRP94 N-terminal domain (NTD) mutant, FLAG-tagged (domain or fragment)
binds	binds	GRP94 middle domain (MD) mutant, FLAG-tagged (domain or fragment)
binds	binds	ΔA-GRP94 mutant, FLAG-tagged (domain or fragment)

Results are given in words; binding and its absence hold for the method and conditions named. In cells and extracts the contact can be indirect. Binding calls can cover weak binding; strength is not graded here. Tags and fused reporters may be left off the sequences shown.
